# Some of the results follow. These are further read-outs of the screen, such as a control signal, another cell line or another target. No call is given for them. Compounds called inactive in the main read-out are mostly missing here. The note in brackets gives the kind of curve behind each potency; many fits are weak.
# Assay: qHTS Assay for Lipid Storage Modulators in Drosophila S3 Cells;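 as to cell number change: cells counted by Cell Tracker Red CMTPX staining in the red channel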
# Settings: BODIPY lipid droplet fluorescence, 18-24 h; for cell number change: measured here: cell count max response, cells fed with added oleic acid
# Procedure, shortened: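 Laser-scanning cytometry quantifies lipid droplet accumulation (500–530 nm total intensity; droplet/cell object ratio) in oleic acid-fed (400 uM added) Drosophila S3 cells treated with a concentration series. 20 uM Triacsin C defined 100% inhibition.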
# [1] = measured here: cell number channel AC50, cells fed with added oleic acid
# [2] = measured here: lipid fluorescence (Fed channel) AC50, cells fed with added oleic acid
compound,measurement,setting,value
CC(NC(=O)Nc1nnc(C(F)(F)F)s1)(C(F)(F)F)C(F)(F)F,cell number change,,-61.1%
same,AC50,[1],"16.4 µM [falling, partial curve]"
same,AC50,[2],"2.59 µM [falling, full curve]"
CC(C)CC1NC(=O)N(CC(=O)NC2CCCc3ccccc32)C1=O (configuration not stated),cell number change,,-1.7%
Cc1ccc(N=N/C(=C\O)C(=O)c2ccncc2)cc1,cell number change,,17%
same,AC50,[1],"0.731 µM [rising, partial curve]"
same,AC50,[2],"3.26 µM [rising, partial curve]"
Cc1ccccc1OCC(=O)OCC(=O)c1c[nH]c2ccccc12,cell number change,,0.501%
same,AC50,[2],"18.4 µM [rising, partial curve, poor fit]"
Cc1ccc(S(=O)(=O)N(CC(=O)N2CCOCC2)C2CCCCC2)cc1,AC50,[1],"0.731 µM [falling, partial curve, poor fit]"
same,AC50,[2],"0.082 µM [falling, full curve, poor fit]"
CCOC(=O)c1sc(-n2[nH]c(C)cc2=O)nc1C,cell number change,,5.92%
same,AC50,[2],"0.00651 µM [falling, full curve, poor fit]"
CN(Cc1ccco1)c1ncnc2ccc(-c3ccoc3)cc12,AC50,[2],"2.31 µM [falling, single point]"
CCC(=O)Nc1cccc(NC(=S)NC(=O)c2ccccc2)c1,cell number change,,78.1%
same,AC50,[1],"18.4 µM [rising, single point]"
same,AC50,[2],"6.51 µM [rising, single point]"
COC(=O)CCc1cccc(CCC(=O)OC)c1,cell number change,,17.1%
same,AC50,[2],"29.1 µM [rising, partial curve, poor fit]"
Cc1cc(C)nc(NC(=O)c2ccc(Cl)c(Cl)c2)n1,AC50,[2],"2.06 µM [rising, partial curve]"
O=C(Oc1ccccc1)c1cccnc1Oc1ccccc1,cell number change,,10.4%
same,AC50,[1],"0.461 µM [falling, full curve]"
same,AC50,[2],"0.461 µM [falling, full curve, poor fit]"
Cc1ccc(NC(=S)NC(=O)c2ccc(F)cc2)cc1S(=O)(=O)Nc1cccc(Cl)c1,cell number change,,0.888%
same,AC50,[2],"23.1 µM [falling, partial curve]"
COc1ccc2[nH]c(=O)c(CN(CCN3CCCC3)C(=O)Nc3ccccc3Cl)cc2c1,AC50,[1],"1.3 µM [rising, full curve]"
Cc1cccc(OCc2nnc(SCC(=O)N3c4ccccc4Sc4ccc(Cl)cc43)o2)c1,cell number change,,-1.63%
same,AC50,[2],"6.51 µM [rising, single point]"
CCC(CC)NC(=O)c1n[nH]c(=O)c2ccccc12,cell number change,,-12.2%
CCc1c(C2(O)CCCCC2)[nH]c2cc(C(F)(F)F)ccc12,cell number change,,-36.6%
same,AC50,[1],"14.6 µM [falling, single point]"
CC(C)CC(=O)N1CCN(S(=O)(=O)c2ccc(C3CCCCC3)cc2)CC1,cell number change,,-17.7%
same,AC50,[1],"0.461 µM [falling, full curve, poor fit]"
same,AC50,[2],"0.206 µM [falling, full curve, poor fit]"
Cc1cccc(N2CCN(Cc3nc(C4CC4)no3)CC2)n1,cell number change,,17%
same,AC50,[2],"0.58 µM [falling, full curve, poor fit]"
Cc1ccc(N2C(=O)c3cccc(Oc4ccc(Cl)cc4)c3C2=O)c(C)c1,cell number change,,9.16%
same,AC50,[2],"0.58 µM [falling, partial curve]"
COc1ccc(C=C(c2ccc(OC)cc2)c2ccc(OC)cc2)cc1,cell number change,,72.8%
same,AC50,[1],"8.2 µM [rising, partial curve]"
same,AC50,[2],"2.06 µM [rising, partial curve]"
COc1ccc(OCC(O)Cn2c(N)nc3c2c(=O)[nH]c(=O)n3C)cc1 (configuration not stated),cell number change,,5.82%
same,AC50,[1],"6.51 µM [rising, single point]"
same,AC50,[2],"6.51 µM [rising, single point]"
C=CCc1c(C)nc(C)nc1N/N=C/c1ccc(N(C)C)cc1,AC50,[2],"0.58 µM [falling, single point]"
Cc1cc(C)c(S(=O)(=O)c2c(C)cccc2C)c(OCC(C)C)n1,cell number change,,-90.1%
same,AC50,[1],"18.4 µM [falling, partial curve]"
same,AC50,[2],"20.6 µM [falling, partial curve]"
CC(=O)N(c1ccc2oc(=O)sc2c1)S(=O)(=O)c1cccs1,cell number change,,-9.06%
Cc1ccc(NC(=O)N2CCc3ccccc3C2)cc1,AC50,[2],"1.84 µM [rising, partial curve]"
O=C(c1ccc(-c2cccc(C(F)(F)F)c2)o1)N1CCN(c2ccccc2O)CC1,cell number change,,-53.7%
same,AC50,[1],"29.1 µM [falling, single point]"
same,AC50,[2],"18.4 µM [falling, partial curve]"
NNC(=O)/C(=N/Nc1ccccc1)S(=O)(=O)c1ccc(Cl)cc1,cell number change,,26.5%
same,AC50,[2],"8.2 µM [rising, partial curve]"
CCN(C1CCS(=O)(=O)C1)S(=O)(=O)c1ccc(Cl)s1 (configuration not stated),cell number change,,-12.9%
O=S(=O)(c1cccc(NC(=S)Nc2ccc(Br)cc2Cl)c1)N1CCOCC1,cell number change,,46.2%
same,AC50,[1],"29.1 µM [rising, single point]"
same,AC50,[2],"29.1 µM [rising, single point]"
CCOc1cc(N2CCOCC2)c(OCC)cc1NC(=O)C1CCCC1,cell number change,,58.7%
same,AC50,[1],"16.4 µM [rising, single point]"
Cc1ccc(N(Cc2cc(=O)[nH]c3ccccc23)C(=O)C(C)C)cc1,cell number change,,-7.58%
CC(=O)OCC1(C)CN(c2ccccc2)N(C(=O)c2ccc(C(C)(C)C)cc2)C1=O (configuration not stated),cell number change,,-13.1%
COc1ccc(-c2ccc(/C=N/NC(=O)c3cccnc3)o2)c([N+](=O)[O-])c1,AC50,[2],"6.51 µM [falling, single point]"
COc1ccc(/C=N/Nc2ccccn2)cc1OC,cell number change,,18.8%
same,AC50,[1],"2.31 µM [rising, single point]"
same,AC50,[2],"3.66 µM [rising, full curve]"
CCC(C)(C)NC(=O)CN(C(=O)CCC(=O)Nc1ccccn1)c1ccc(F)c(Cl)c1,cell number change,,56.8%
same,AC50,[1],"10.3 µM [rising, partial curve]"
CC(=O)Nc1ccc(C(=O)N2CCN(C(=O)c3ccco3)CC2)cc1,cell number change,,-11.6%
same,AC50,[2],"0.231 µM [falling, full curve]"
CC(O)CNc1nc2ccccc2n1CC(=O)NCCc1ccc(Cl)cc1 (configuration not stated),AC50,[1],"0.92 µM [rising, partial curve]"
same,AC50,[2],"0.366 µM [rising, full curve]"
C=CCOc1cccc(C2C(C(=O)c3cccs3)=C(O)C(=O)N2Cc2cccnc2)c1 (configuration not stated),cell number change,,8.68%
same,AC50,[2],"3.66 µM [rising, full curve, poor fit]"
Cc1nn2c(-c3cccc(NC(=O)c4ccco4)c3)nnc2c2ccccc12,AC50,[1],"0.116 µM [rising, full curve]"
same,AC50,[2],"0.116 µM [rising, full curve, poor fit]"
Cc1ccccc1C1C(C#N)=C2N=C(N)c3c(sc4c3CCCCC4)N2C2=C1C(=O)CCC2 (configuration not stated),cell number change,,-0.891%
same,AC50,[1],"0.00651 µM [falling, full curve, poor fit]"
same,AC50,[2],"29.1 µM [falling, single point]"
CC(=O)NC(Cc1ccc(F)cc1)C(=O)NC1CCN(C(=O)Nc2cccc(C)c2)CC1 (configuration not stated),cell number change,,23.8%
CC1CCCN(C(=O)CNS(=O)(=O)c2cccs2)C1 (configuration not stated),cell number change,,2.61%
same,AC50,[2],"6.51 µM [falling, single point]"
Cc1ccc(NC(=O)c2cccc(-n3cnnn3)c2)cc1Cl,cell number change,,-11.4%
same,AC50,[2],"0.58 µM [falling, full curve, poor fit]"
Cc1cccc(NC(=O)CSc2nc3ccccc3c(=O)n2C)c1,cell number change,,-31.5%
same,AC50,[1],"7.31 µM [falling, partial curve]"
CCN1C(=O)Cc2cc(S(=O)(=O)N3CCOCC3)ccc21,AC50,[1],"6.51 µM [falling, single point]"
same,AC50,[2],"6.51 µM [falling, partial curve, poor fit]"
C=CCc1c(C)nc(-c2ccccc2)nc1N/N=C(\C)c1ccccc1,cell number change,,29.7%
same,AC50,[1],"1.46 µM [rising, full curve, poor fit]"
Cc1ccc(-n2c(SCc3nc4ccccc4c(=O)[nH]3)nnc2-c2ccccc2O)cc1,cell number change,,-0.623%
same,AC50,[2],"2.06 µM [rising, partial curve]"
Cc1c(NC(=O)c2cc(C3CC3)on2)c(=O)n(-c2ccccc2)n1C,cell number change,,25%
same,AC50,[2],"29.1 µM [rising, single point]"
Cc1ccc(S(=O)(=O)n2nccc2-c2c(-c3ccccc3)noc2C)cc1,cell number change,,11.1%
same,AC50,[1],"1.84 µM [rising, partial curve, poor fit]"
same,AC50,[2],"2.06 µM [rising, partial curve]"
O=C(CN1CCCCC1)Nc1ccccc1NC(=O)CN1CCCCC1,cell number change,,-122%
same,AC50,[1],"20.6 µM [falling, partial curve]"
same,AC50,[2],"23.1 µM [falling, partial curve]"
Cc1cc(=O)oc2cc3c(cc12)OCO3,cell number change,,69%
same,AC50,[1],"29.1 µM [rising, single point]"
O=C1CCN(CCCc2ccccc2)CCN1[C@H](CO)c1ccccc1,cell number change,,18%
same,AC50,[2],"5.8 µM [rising, full curve]"
O=[N+]([O-])c1ccc(N2CCN(c3ccccc3O)CC2)c(Cl)c1,cell number change,,-30.6%
COc1ccc(CCN(C)C(=O)c2ccc(S(=O)(=O)NCc3ccco3)cc2)cc1OC,cell number change,,-50%
same,AC50,[1],"29.1 µM [falling, single point]"
Cc1ccc2cccc(OCc3ccccc3)c2n1,cell number change,,8.89%
CCCC(=O)NC(=S)Nc1cccc2c(O)cccc12,cell number change,,44.1%
same,AC50,[1],"16.4 µM [rising, single point]"
same,AC50,[2],"29.1 µM [rising, single point]"
CC1=NN(c2ccc(N)cc2)C(=O)C1,cell number change,,-0.131%
same,AC50,[2],"0.651 µM [falling, single point]"
CCN(CC(=O)Nc1ccc(NC(C)=O)cc1)CC(=O)Nc1ccccc1C(=O)c1ccccc1,cell number change,,-73.8%
same,AC50,[1],"0.116 µM [falling, full curve, poor fit]"
same,AC50,[2],"0.461 µM [falling, full curve]"

# Two neighbouring entries already listed, for reference:
compound,measurement,setting,value
CN(Cc1ccco1)c1ncnc2ccc(-c3ccoc3)cc12,AC50,[2],"2.31 µM [falling, single point]"
CCC(=O)Nc1cccc(NC(=S)NC(=O)c2ccccc2)c1,cell number change,,78.1%

# Quoted at random: three records from the list
compound,measurement,setting,value
NNC(=O)/C(=N/Nc1ccccc1)S(=O)(=O)c1ccc(Cl)cc1,AC50,[2],"8.2 µM [rising, partial curve]"
O=S(=O)(c1cccc(NC(=S)Nc2ccc(Br)cc2Cl)c1)N1CCOCC1,AC50,[2],"29.1 µM [rising, single point]"
Cc1ccccc1C1C(C#N)=C2N=C(N)c3c(sc4c3CCCCC4)N2C2=C1C(=O)CCC2 (configuration not stated),AC50,[1],"0.00651 µM [falling, full curve, poor fit]"

# Reference: PubChem BioAssay AID2685 (National Center for Advancing Translational Sciences (NCATS), 2010)
